From patent publication US20130023534A1, “PYRAZOLYL-PYRIMIDINES AS KINASE INHIBITORS” (priority 2010, published 2013)
Counter-ions that a name gives are not always drawn. Some of these results come from one statement about several compounds together.

Amino acid sequences for entries named in this document (tags omitted).
UniProt O43353, whole entry: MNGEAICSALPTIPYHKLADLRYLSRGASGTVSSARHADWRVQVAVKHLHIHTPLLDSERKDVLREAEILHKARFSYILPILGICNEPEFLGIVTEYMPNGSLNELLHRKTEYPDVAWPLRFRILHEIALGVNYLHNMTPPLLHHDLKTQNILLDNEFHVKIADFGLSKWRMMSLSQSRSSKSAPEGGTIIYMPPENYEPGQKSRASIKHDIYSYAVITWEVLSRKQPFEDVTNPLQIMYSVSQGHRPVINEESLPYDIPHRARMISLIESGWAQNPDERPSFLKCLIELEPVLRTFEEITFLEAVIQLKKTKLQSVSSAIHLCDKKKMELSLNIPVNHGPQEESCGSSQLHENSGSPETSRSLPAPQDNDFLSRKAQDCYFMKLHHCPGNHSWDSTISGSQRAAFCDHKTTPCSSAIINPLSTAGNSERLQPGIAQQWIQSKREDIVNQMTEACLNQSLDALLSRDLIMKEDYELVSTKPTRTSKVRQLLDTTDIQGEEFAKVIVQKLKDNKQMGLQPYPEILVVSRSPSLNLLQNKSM

These compounds were tested against T1, RIPK2 (Homo sapiens, UniProt O43353) (assay: Fluorescent polarization based binding assay at the ATP binding pocket of RIPK2). Settings: full length FLAG His tagged RIPK2; competition with fluorescently labeled ATP competitive ligand (5 nM); mean of a minimum of 2 experiments.
T1 construct: Full length FLAG His tagged RIPK2 was purified from a Baculovirus expression system; FLAG (N); 6His (N); made in house; host or cells: Spodoptera frugiperda (Sf9) insect cells, baculovirus

Compound | mean pIC50
COc1ccc(Nc2nccc(Nc3cc(C)nn3-c3ccc(Cl)cc3)n2)cc1OC [Example 30, N^2-[3,4-bis(methyloxy)phenyl]-N^4-[1-(4-chlorophenyl)-3-methyl-1H-pyrazol-5-yl]-2,4-pyrimidinediamine] | greater than or equal to 6.0
Cc1ccc(Nc2nccc(Nc3n[nH]c(C)c3C)n2)cc1S(=O)(=O)N1CCOC[C@@H]1C [Example 140, N^4-(4,5-dimethyl-1H-pyrazol-3-yl)-N^2-(4-methyl-3-{[(3S)-3-methyl-4-morpholinyl]sulfonyl}phenyl)-2,4-pyrimidinediamine] | greater than or equal to 6.0
Cc1nn(C)c(Nc2ccnc(Nc3cccc(S(=O)(=O)N4CCCC4)c3)n2)c1C [Example 59, N^2-[3-(1-pyrrolidinylsulfonyl)phenyl]-N^4-(1,3,4-trimethyl-1H-pyrazol-5-yl)-2,4-pyrimidinediamine trifluoroacetate] | greater than or equal to 6.0
COc1ccc(Nc2nccc(Nc3c(C)c(C)nn3-c3cccnc3)n2)cc1OC [Example 15, N^2-[3,4-bis(methyloxy)phenyl]-N^4-[3,4-dimethyl-1-(3-pyridinyl)-1H-pyrazol-5-yl]-2,4-pyrimidinediamine trifluoroacetate] | greater than or equal to 6.0
COc1ccc(Nc2nccc(Nc3c(C)c(C)nn3-c3ccccn3)n2)cc1OC [Example 35, N^2-[3,4-bis(methyloxy)phenyl]-N^4-[3,4-dimethyl-1-(2-pyridinyl)-1H-pyrazol-5-yl]-2,4-pyrimidinediamine trifluoroacetate] | greater than or equal to 6.0
COc1ccc(-n2nc(C)c(C)c2Nc2ccnc(Nc3cc(OC)c(OC)c(OC)c3)n2)cc1 [Example 44, N^4-{3,4-dimethyl-1-[4-(methyloxy)-phenyl]-1H-pyrazol-5-yl}-N^2-[3,4,5-tris(methyloxy)phenyl]-2,4-pyrimidinediamine trifluoroacetate] | greater than or equal to 6.0
Cc1noc(N(C)c2ccnc(Nc3cccc(S(=O)(=O)C(C)C)c3)n2)c1C [Example 161, N4-(3,4-DIMETHYL-5-ISOXAZOLYL)-N4-METHYL-N2-{3-[(1-METHYLETHYL)SULFONYL]PHENYL}-2,4-PYRIMIDINE-DIAMINE] | greater than or equal to 6.0
Cc1[nH]nc(Nc2ccnc(Nc3cc(N4CCCC4)c(C)c(S(C)(=O)=O)c3)n2)c1C [Example 128, N4-(4,5-dimethyl-1H-pyrazol-3-yl)-N2-[4-methyl-3-(methylsulfonyl)-5-(1-pyrrolidinyl)phenyl]-2,4-pyrimidinediamine] | greater than or equal to 6.0
Cc1n[nH]c(Nc2ccnc(Nc3cc(S(C)(=O)=O)cc(S(C)(=O)=O)c3)n2)c1C [Example 102, N^2-[3,5-bis(methylsulfonyl)phenyl]-N^4-(3,4-dimethyl-1H-pyrazol-5-yl)-2,4-pyrimidinediamine trifluoroacetate] | greater than or equal to 6.0
Cc1cc(Nc2ccnc(Nc3ccc(N4CCN(C)CC4)cc3)n2)n(-c2ccccc2C)n1 [Example 40, N^4-[3-methyl-1-(2-methylphenyl)-1H-pyrazol-5-yl]-N^2-[4-(4-methyl-1-piperazinyl)phenyl]-2,4-pyrimidinediamine] | greater than or equal to 6.0
Cc1cc(Nc2nccc(N(C)c3onc(C)c3C)n2)cc(S(C)(=O)=O)c1 [Example 163, N4-(3,4-DIMETHYL-5-ISOXAZOLYL)-N4-METHYL-N2-[3-METHYL-5-(METHYLSULFONYL)PHENYL]-2,4-PYRIMIDINE-DIAMINE] | greater than or equal to 6.0
COc1ccc(Nc2nccc(Nc3c(C)c(C)nn3CC3CCOCC3)n2)cc1OC [Example 143, N^2-[3,4-bis(methyloxy)phenyl]-N^4-[3,4-dimethyl-1-(tetrahydro-2H-pyran-4-ylmethyl)-1H-pyrazol-5-yl]-2,4-pyrimidinediamine] | greater than or equal to 6.0
COc1ccc(Nc2nccc(Nc3cc(C)nn3-c3ccc(C)c(Cl)c3)n2)cc1OC.O=C(O)C(F)(F)F [Example 52, N^2-[3,4-bis(methyloxy)phenyl]-N^4-[1-(3-chloro-4-methylphenyl)-3-methyl-1H-pyrazol-5-yl]-2,4-pyrimidinediamine trifluoroacetate] | greater than or equal to 6.0
COc1ccc(Nc2nccc(Nc3c(C)c(C)nn3C)n2)cc1OC [Example 36, N^2-[3,4-bis(methyloxy)phenyl]-N^4-(1,3,4-trimethyl-1H-pyrazol-5-yl)-2,4-pyridmidinediamine trifluoroacetate] | greater than or equal to 6.0
Cc1noc(Nc2ccnc(Nc3cccc(C(C)(C)C#N)c3)n2)c1C [Example 159, 2-[3-({4-[(3,4-dimethyl-5-isoxazolyl)amino]-2-pyrimidinyl}-amino)phenyl]-2-methylpropane-nitrile] | greater than or equal to 6.0
Cc1nn2c(c1C)N(c1ccnc(Nc3cccc(S(C)(=O)=O)c3)n1)CC2 [Example 100, 4-(6,7-dimethyl-2,3-dihydro-1H-imidazo[1,2-b]pyrazol-1-yl)-N-[3-(methylsulfonyl)phenyl]-2-pyrimidinediamine] | greater than or equal to 6.0

Compound | mean pIC50
Cc1noc(Nc2ccnc(Nc3cccc(S(=O)(=O)N4CCCC4)c3)n2)c1C [Example 157, N^4-(3,4-dimethyl-5-isoxazolyl)-N^2-[3-(1-pyrrolidinylsulfonyl)phenyl]-2,4-pyrimidinediamine trifluoroacetate] | greater than or equal to 6.0
Cc1noc(Nc2ccnc(Nc3cc(C(F)(F)F)cc(S(=O)(=O)C(C)(C)C)c3)n2)c1C [Example 174, N2-[3-[(1,1-dimethylethyl)sulfonyl]-5-(trifluoromethyl)phenyl]-N4-(3,4-dimethyl-5-isoxazolyl)-2,4-pyrimidinediamine] | greater than or equal to 6.0
Cc1[nH]nc(N(C)c2ccnc(Nc3cccc(S(C)(=O)=O)c3)n2)c1C [Example 124, N4-(4,5-DIMETHYL-1H-PYRAZOL-3-YL)-N3-METHYL-N2-[3-(METHYL-SULFONYL)PHENYL]-2,4-PYRIMIDINE-DIAMINE] | greater than or equal to 6.0
Cc1nn(C2CCCCC2)c(Nc2ccnc(Nc3ccc(F)c(S(C)(=O)=O)c3)n2)c1C [Example 103, N4-(1-cyclohexyl-3,4-dimethyl-1H-pyrazol-5-yl)-N2-[4-fluoro-3-(methylsulfonyl)phenyl]-2,4-pyrimidinediamine] | greater than or equal to 6.0
Cc1n[nH]c(Nc2ccnc(Nc3cccc(S(=O)(=O)CCO)c3)n2)c1C [Example 88, 2-{[3-({4-[(3,4-dimethyl-1H-pyrazol-5-yl)amino]-2-pyrimidinyl}amino)phenyl]sulfonyl}ethanol hydrochloride] | greater than or equal to 6.0
Cc1n[nH]c(Nc2ccnc(Nc3cccc(C(N)=O)c3)n2)c1C [Example 81, 3-({4-[(3,4-dimethyl-1H-pyrazol-5-yl)amino]-2-pyrimidinyl}amino)benzamide] | greater than or equal to 6.0
Cc1ccc(S(C)(=O)=O)cc1Nc1nccc(Nc2onc(C)c2C)n1 [Example 158, N4-(3,4-dimethyl-5-isoxazolyl)-N2-[2-methyl-5-(methylsulfonyl)phenyl]-2,4-pyrimidinediamine] | greater than or equal to 6.0
COc1cc(Nc2nccc(Nc3c(C)c(C)nn3C3CCOCC3)n2)cc(OC)c1OC.O=C(O)C(F)(F)F [Example 146, N^4-[3,4-dimethyl-1-(tetrahydro-2H-pyran-4-yl)-1H-pyrazol-5-yl]-N^2-[3,4,5-tris(methyloxy)phenyl]-2,4-pyrimidinediamine trifluoroacetate] | greater than or equal to 6.0
Cc1ccc(-n2nc(C)c(C)c2Nc2ccnc(Nc3cccc(S(N)(=O)=O)c3)n2)cc1.O=C(O)C(F)(F)F [Example 33, 3-[(4-{[3,4-dimethyl-1-(4-methylphenyl)-1H-pyrazol-5-yl]amino}-2-pyrimidinyl)amino]benzenesulfonamide trifluoroacetate] | greater than or equal to 6.0
Cc1cc(Nc2nccc(Nc3[nH]nc(C)c3C)n2)cc(S(=O)(=O)N(C)C)c1 [Example 76, 3-({4-[(3,4-dimethyl-1H-pyrazol-5-yl)amino]-2-pyrimidinyl}amino)-N,N,5-trimethylbenzenesulfonamide] | greater than or equal to 6.0
Cc1ccc(Nc2nccc(Nc3n[nH]c(C)c3C)n2)cc1S(N)(=O)=O [Example 152, 5-({4-[(4,5-dimethyl-1H-pyrazol-3-yl)amino]-2-pyrimidinyl]amino)-2-methylbenzenesulfonamide] | greater than or equal to 6.0
COc1cc(Nc2nccc(Nc3onc(C)c3C)n2)cc(S(C)(=O)=O)c1 [Example 167, N4-(3,4-DIMETHYL-5-ISOXAZOLYL)-N2-[3-(METHYLOXY)-5-(METHYL-SULFONYL)PHENYL]-2,4-PYRIMIDINE-DIAMINE] | greater than or equal to 6.0
COc1ccc(-n2nc(C(F)(F)F)c(C)c2Nc2ccnc(Nc3ccc(OC)c(OC)c3)n2)cc1 [Example 20, N^2-[3,4-bis(methyloxy)phenyl]-N^4-[4-methyl-1-[4-(methyloxy)phenyl]-3-(trifluoromethyl)-1H-pyrazol-5-yl]-2,4-pyrimidinediamine] | greater than or equal to 6.0
CCOC(=O)C(C)(C)Sc1cccc(Nc2nccc(Nc3[nH]nc(C)c3C)n2)c1 [Example 96, ethyl 2-{[3-({4-[(3,4-dimethyl-1H-pyrazol-5-yl)amino]-2-pyrimidinyl}amino)phenyl]thio}-2-methylpropanoate] | greater than or equal to 6.0
COc1ccc(-n2nc(C)c(C)c2Nc2ccnc(Nc3ccc(OC)c(OC)c3)n2)nc1 [Example 104, N^2-[3,4-bis(methyloxy)phenyl]-N^4-{3,4-dimethyl-1-[5-(methyloxy)-2-pyridinyl]-1H-pyrazol-5-yl}-2,4-pyrimidinediamine trifluoroacetate] | greater than or equal to 6.0
